PubChem BioAssay AID1259308, NCATS | 2017
In all, the deposit lists about 59,000 reagents; this is a random part of them. About 1,510 of them (2.6%) count as active. 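Calls use total luciferase alone and ignore viability, so some active siRNAs may act by altering cell number.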 Reagents against one gene are numbered here. Further read-outs or replicates are left out here.

Test: 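Genes whose loss raises luciferase production in HEK293 cells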 (primary screen)
Cells: human HEK293 embryonic kidney cells stably expressing firefly luciferase (HEK-CMV-Luc2-Hygro)
Reagents: single siRNA against human genes, 0.8 pmol siRNA per well
Duration: 72 h
Measured: 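Reporter luminescence and viable-cell signal on separate replicate plates, given as percent of non-targeting control and median/MAD z-scores, plus per-cell luciferase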
Scale: total luciferase, z-score: higher = more reporter protein produced
Hit rule: 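Active when the median/MAD z-score for overall luciferase is greater than 3; a gene was taken forward for validation with new siRNAs if at least two of its three siRNAs passed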
Calls: active = raised luciferase; inactive = no rise

total luciferase, z-score, by target gene and reagent
CBY1: #1 2.8 inactive; #2 0.268 inactive; #3 -0.409 inactive
SRR: #1 0.811 inactive; #2 -0.76 inactive; #3 2.68 inactive
DEFB116: #1 -1.23 inactive; #2 2.41 inactive; #3 1.1 inactive
EEF1A2: #1 1.63 inactive; #2 -0.592 inactive; #3 3.43 active
CRYBG1: #1 0.424 inactive; #2 0.215 inactive; #3 0.951 inactive
MTCH2: #1 -0.759 inactive; #2 -1.5 inactive; #3 -0.447 inactive
TMEM268: #1 1.46 inactive; #2 0.0101 inactive; #3 0.199 inactive
SELENOF: #1 -0.523 inactive; #2 -0.0153 inactive; #3 1.93 inactive
HAS2: #1 0.466 inactive; #2 -0.565 inactive; #3 0.364 inactive
ELK3: #1 0.47 inactive; #2 1.56 inactive; #3 -2.04 inactive
PSMC6: #1 0.305 inactive; #2 -0.51 inactive; #3 -2.95 inactive
FCRLB: #1 0.373 inactive; #2 0.0574 inactive; #3 -0.552 inactive
CASC16: #1 0.753 inactive; #2 0.91 inactive; #3 -0.702 inactive
STAM: #1 -0.396 inactive; #2 -0.148 inactive; #3 -0.75 inactive
NPRL3: #1 -0.814 inactive; #2 -0.275 inactive; #3 1.26 inactive
C9orf78: #1 -1.09 inactive; #2 -0.153 inactive; #3 1.25 inactive
TMEM250: #1 -0.724 inactive; #2 3.36 active; #3 0.117 inactive
WASHC2EP: #1 -1.85 inactive; #2 2.19 inactive; #3 -0.131 inactive
NAV2: #1 2.21 inactive; #2 -0.512 inactive; #3 -0.578 inactive
ARMC2: #1 0.364 inactive; #2 1.1 inactive; #3 1.96 inactive
RBBP9: #1 0.803 inactive; #2 0.0394 inactive; #3 0.64 inactive
CLDN1: #1 1.6 inactive; #2 0.0595 inactive; #3 -0.0797 inactive
PAN2: #1 -1.2 inactive; #2 -0.23 inactive; #3 -1.18 inactive
PCDH18: #1 0.39 inactive; #2 0.384 inactive; #3 0.782 inactive
LINC01896: #1 2.26 inactive; #2 0.254 inactive; #3 1.12 inactive

Targets listed so far whose gene name starts with A or a:
total luciferase, z-score, by target gene and reagent
ARMC2: #1 0.364 inactive; #2 1.1 inactive; #3 1.96 inactive
